{"source": "paper PMC6320938", "about": "(Molecules, 2018)", "key": {"[1]": {"assay": "Short-term stability in rat plasma at room temperature", "type": "in vitro ADME", "settings": "for RE: room temperature stability; for 0 h Measured C / 4 h Measured C / 6 h Measured C: room temperature", "description": "The stabilities of atractylenolides I, II, and III, and atractyloside A in rat plasma were evaluated at three different QC concentrations using six replicates under two conditions, including at 25 °C for 6 h, and three freeze and thaw cycles. Unextracted QC samples of the four compounds at low, medium, and high concentrations were kept at ambient temperature (25 °C) for 6 h to determine the short-term stability of the compounds in rat plasma. The samples were processed and analyzed, and then the concentrations were compared with the nominal values of the QC samples. The stabilities of the plasma samples after three freeze and thaw cycles were determined. In each cycle, the QC samples were stored at −20 °C for 24 h and thawed unassisted at room temperature. When completely thawed, the samples were refrozen within 24 h. The cycle was repeated three times and the samples were analyzed after the third cycle. Stability was assessed by comparing the mean concentration of the stored QC samples with the mean concentration of freshly prepared QC samples."}, "[2]": {"assay": "Freeze-thaw stability in rat plasma", "type": "in vitro ADME", "settings": "for One Time Measured C / Two Time Measured C / Zero Time Measured C: freeze-thaw (−20 °C / room temperature); for RE: freeze-thaw stability", "description": "[…] Unextracted QC samples of the four compounds at low, medium, and high concentrations were kept at ambient temperature (25 °C) for 6 h to determine the short-term stability of the compounds in rat plasma. The samples were processed and analyzed, and then the concentrations were compared with the nominal values of the QC samples. […] In each cycle, the QC samples were stored at −20 °C for 24 h and thawed unassisted at room temperature. When completely thawed, the samples were refrozen within 24 h. […] Stability was assessed by comparing the mean concentration of the stored QC samples with the mean concentration of freshly prepared QC samples."}, "[3]": {"settings": "high QC: added 140 (atractylenolide I), 200 (II, III), 172 (atractyloside A) ng/mL"}, "[4]": {"settings": "low QC: added 5.6 (atractylenolide I), 8 (II, III), 6.88 (atractyloside A) ng/mL"}, "[5]": {"settings": "medium QC: added 28 (atractylenolide I), 40 (II, III), 17.2 (atractyloside A) ng/mL"}}, "data": [{"smiles": "C=C1CCC[C@]2(C)C=C3OC(=O)C(C)=C3C[C@@H]12", "note": "[Atractylenolide I]", "values": [{"measurement": "RE", "setting": "[1]; [3]", "value": 0.13, "unit": "%"}, {"measurement": "RE", "setting": "[1]; [4]", "value": "−1.37", "unit": "%"}, {"measurement": "RE", "setting": "[1]; [5]", "value": 0.98, "unit": "%"}, {"measurement": "0 h Measured C", "setting": "[1]; [3]", "value": 140.49, "unit": "ng/mL"}, {"measurement": "4 h Measured C", "setting": "[1]; [3]", "value": 140.45, "unit": "ng/mL"}, {"measurement": "6 h Measured C", "setting": "[1]; [3]", "value": 139.61, "unit": "ng/mL"}, {"measurement": "0 h Measured C", "setting": "[1]; [4]", "value": 5.56, "unit": "ng/mL"}, {"measurement": "4 h Measured C", "setting": "[1]; [4]", "value": 5.51, "unit": "ng/mL"}, {"measurement": "6 h Measured C", "setting": "[1]; [4]", "value": 5.50, "unit": "ng/mL"}, {"measurement": "0 h Measured C", "setting": "[1]; [5]", "value": 28.52, "unit": "ng/mL"}, {"measurement": "4 h Measured C", "setting": "[1]; [5]", "value": 28.43, "unit": "ng/mL"}, {"measurement": "6 h Measured C", "setting": "[1]; [5]", "value": 27.87, "unit": "ng/mL"}, {"measurement": "One Time Measured C", "setting": "[2]; [3]", "value": 140.01, "unit": "ng/mL"}, {"measurement": "Two Time Measured C", "setting": "[2]; [3]", "value": 140.22, "unit": "ng/mL"}, {"measurement": "Zero Time Measured C", "setting": "[2]; [3]", "value": 141.30, "unit": "ng/mL"}, {"measurement": "One Time Measured C", "setting": "[2]; [4]", "value": 5.04, "unit": "ng/mL"}, {"measurement": "Two Time Measured C", "setting": "[2]; [4]", "value": 5.02, "unit": "ng/mL"}, {"measurement": "Zero Time Measured C", "setting": "[2]; [4]", "value": 5.95, "unit": "ng/mL"}, {"measurement": "One Time Measured C", "setting": "[2]; [5]", "value": 28.50, "unit": "ng/mL"}, {"measurement": "Two Time Measured C", "setting": "[2]; [5]", "value": 28.01, "unit": "ng/mL"}, {"measurement": "Zero Time Measured C", "setting": "[2]; [5]", "value": 28.42, "unit": "ng/mL"}, {"measurement": "RE", "setting": "[2]; [3]", "value": 0.36, "unit": "%"}, {"measurement": "RE", "setting": "[2]; [4]", "value": "−4.70", "unit": "%"}, {"measurement": "RE", "setting": "[2]; [5]", "value": 1.11, "unit": "%"}]}]}
